In PubChem BioAssay AID1347423 (Functional Genomics Laboratory (NCATS/FGL), 2020):
Among all 52,000 sequences or so, about 210 (0.4%) were called active.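 Rule for the calls: active = gene whose silencing raises cell survival under the drug, median off-target-corrected z-score across its silencing RNAs 2 or more; inactive = the rest.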 Some of the results follow.

assay: Resistance to Poly (ADP-Ribose) Polymerase inhibitor: Gene Identification via Genome-wide siRNA Screen; details: mouse BRCA2 R2336H ES cells, olaparib, CellTiter-Glo viability; stronger effect = higher value
Procedure, shortened: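 Mouse BRCA2 R2336H ES cells were reverse-transfected with siRNA (20 nM final), treated at 48 h with 500 nM olaparib, and read by CellTiter-Glo after 72 h. Scores: MAD-based z per siRNA, median per gene, seed off-target correction.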

Row | Sequence | z-score
1 | CCUCAUAGCCAGUCUUUUUTT against Pafah2 | inactive: 0.408
2 | CCUUACAGGACAUAAAACATT against Tde2 | inactive: -2.09
3 | GGCUGUCAUGAUCAGUCAUTT against V1rc7 | inactive: 0.621
4 | GGAAGAAUUGCUUUGCCUCTT against Krt1-24 | inactive: -1.84
5 | CCUAUGAAGGUGAAUGCUUTT against Fbxl4 | inactive: 0.651
6 | CCCAGAGCCAGGUUCAAACTT against LOC446210 | inactive: -2.03
7 | CCACUUUACAGUGUUGAUATT against Eaf1 | inactive: 0.23
8 | GCUUGUGGAAGAACCUACUTT against Hoxc13 | inactive: -0.97
9 | CCACGCUACAUGCAAUGGCTT against Itpka | inactive: -0.105
10 | GGUGCAAACUAAAAAUCUUTT against Enc1 | inactive: 1.19
11 | GGAAGACGAAGACGACAUUTT against Ercc3 | inactive: 1.29
12 | GCUGUACGAGCAUACUGUGTT against Tnxb | inactive: 0.27
13 | CCGGUUUGGGAAAAAGAAATT against Olfr610 | inactive: -1.07
14 | GGCUUGUUUCUGUGAUGAATT against Zfp330 | inactive: 0.853
15 | GGAGAAUUAAAAUGUGAAGTT against Hsd17b4 | inactive: 0.807
16 | GCCACCAUUAUGGCUAUGGTT against Pcsk4 | inactive: 0.212
17 | CCCUGCCCGGGUUUUUAUATT against 9430079M16Rik | inactive: -0.727
18 | GCCCAGUUUGUCACAAAGCTT against Sorl1 | inactive: -0.0208
19 | GGGAUUCUUUUUGUGGAAATT against 6330414G21Rik | inactive: 0.165
20 | GCGCGAAUUCUACUUUGACTT against Kcnf1 | inactive: 1.86
21 | GCCGGGAGAAAUAAAUGGUTT against Mif | inactive: 0.12
22 | GGCUGAGAAUGCAAGAAUGTT against Krt1-2 | inactive: 0.48
23 | CCCUUUGACUAACCCUCUCTT against Tfpt | inactive: -0.294
24 | GGAGAGGAGAGAGGGAAAATT against Sox4 | inactive: 1.79
25 | GGAAAUGUGUGAAAUAACCTT against Hip2 | inactive: 0.534
26 | CCGAUUGGCUCGAUACUAUTT against Rps13 | inactive: -3.32
27 | GGUCUAUCAGUCUAUCAGATT against Btbd1 | inactive: -0.353

Row | Sequence | z-score
28 | GGAGAUGACCAAGUACCACTT against Hdac1 | inactive: 1.69
29 | CCUUGAGCAAAUCACACAUTT against Stk32b | inactive: -0.0667
30 | CCUUGUUGACCCAACCAAATT against Nr1h3 | inactive: 0.595
31 | CCCUGGGACUGAAUUUGGUTT against Scnn1b | inactive: 0.684
32 | GGGUGAUAAGCAGUUAUACTT against Wdr75 | inactive: -2.39
33 | GGUCAUCUACCAACUCAGATT against Ifi202b | inactive: -0.412
34 | GGGCUACUCAAUGUCUUAUTT against E230012M21 | inactive: -1.31
35 | GGAUGUUCUAAAGAAGAGATT against 3110010F15Rik | inactive: 0.146
36 | GCAAUAGACAUUUAAAGCATT against Pdlim3 | inactive: 0.671
37 | GGACAAUCCGAACAUCAAATT against Sval1 | inactive: 1.51
38 | GGAAUACAUCGAAAUCAACTT against 4930583C14Rik | inactive: 0.0124
39 | GGUAAAAGACUAAAGAAGATT against Coch | inactive: -1.61
40 | GUCUUUGUUCAGGAGGUGATT against 2310047C17Rik | inactive: 0.394
41 | GGAAAAAGCCUAACUAUGATT against Ccnl1 | inactive: -0.157
42 | CCUAACCACUACCUUAUACTT against H2-DMa | inactive: 0.1
43 | CGGGACAAGUCCAAAUUGUTT against Ear5 | inactive: 0.54
44 | GGCCAAUGAGAACAGCCUGTT against Ndst1 | inactive: -0.786
45 | GCUACAUCGUUCGAGCUAGTT against Cyc1 | inactive: 1.56
46 | GGACAUAAAAGUGUCUCGATT against Cldn13 | inactive: 0.763
47 | CCUUACGAGAAAAAAUUAGTT against Spats1 | inactive: 0.274
48 | GCUAUAUCUACGACAAGGATT against Crip2 | inactive: 0.969
49 | GGACCAUUCGAAAAAUGCCTT against Cd5 | inactive: 0.914
50 | GGAAUUCUCCAGAAAGCUCTT against 6620401K05Rik | inactive: -1.46
51 | CGACUAUCAGCAGCUGAAGTT against Igf1r | inactive: 0.986
52 | GUGGUUUGCAUUUUUCUUUTT against Olfr134 | inactive: 0.187
53 | CGGACAACGUGGCUUUGUCTT against Pstpip1 | inactive: 0.0837
54 | GGAUUACAGAAGCCCACACTT against BC025458 | inactive: 0.217

Reformatted as labelled records: part of the list above
GGAGAUGACCAAGUACCACTT against Hdac1
  z-score: inactive: 1.69
GGGCUACUCAAUGUCUUAUTT against E230012M21
  z-score: inactive: -1.31
GGAUGUUCUAAAGAAGAGATT against 3110010F15Rik
  z-score: inactive: 0.146
GGACAAUCCGAACAUCAAATT against Sval1
  z-score: inactive: 1.51

Additional records follow.

Row | Sequence | z-score
55 | CCACCGAAAUCCUUAUUUUTT against Ppargc1a | inactive: 0.946
56 | GGUGUAGGCUGUCCAAUAATT against AW540478 | inactive: -1.58
57 | GCCUAGUAGAACUCCCAGCTT against Txn2 | inactive: -0.7
58 | CCAUUAUUUCUACUCUCCCTT against Rpn1 | inactive: 0.458
59 | CGGAGCAUGAGCCAGAUAUTT against Tssc1 | inactive: -0.267
60 | CCUUCGUAGUCUUGAUGUGTT against Olfr1179 | inactive: -1.65
61 | GGUGGUUACACAAGGAACATT against Phgdh | inactive: 0.894
62 | GGAGGCUCAACUGUGUUAATT against Tnfrsf4 | inactive: 2.46
63 | GGAGAAACUUUCAAAAGACTT against Trim36 | inactive: 0.958
64 | GGGAGUAUGAUUUUGAGGATT against A930037G23Rik | inactive: 0.205
65 | GGAUGGAGAAAAUGUUAUGTT against Strbp | inactive: -0.314
66 | CCGCGCCGUUGAUUCAUUUTT against 4930513F16Rik | inactive: 0.336
67 | GGAAGCUAUGAGUUUGGAATT against Tsga2 | inactive: -0.153
68 | CCGUUUUGAACCAUAAAAATT against Zfp7 | inactive: -1.36
69 | GGGCAGAAUUACGAAAGUATT against Smc2l1 | inactive: -1.42
70 | GGAAUCACCCAUCUUUUUATT against Tmem32 | inactive: 1.14
71 | GGAUAAACAUCAUGAAGCUTT against Scgb1a1 | inactive: 0.411
72 | CCAGGAUUACUAUCACAAATT against Ep400 | inactive: -1.95
73 | GCCAGUGGUAGCGAUAUGATT against Gm397 | inactive: 1.59
74 | CGCAGUGAGGAGUAUGAAGTT against Nin | inactive: 1.43
75 | GGACAGCAGUUUUUACUAGTT against Mllt10 | inactive: 0.997
76 | GGAUUCCUAAAUUCUGUGATT against BC023882 | inactive: 0.701
77 | GGAAACCCACAAAAAACAATT against C630013N10Rik | inactive: -0.512
78 | GGCUACUCAGCAGAUUGUCTT against Dclre1b | inactive: 0.507
79 | CCUUUAUUCUCUGUAUUUGTT against Obox1 | inactive: 0.29
80 | GCCUCUGUCAUUGAAGCUGTT against D630047F21Rik | inactive: 0.216
81 | CGGUUUGCACAAGAAAUGGTT against Svs6 | inactive: 1.11

Looked up above.
In z-score, GGAAGCUAUGAGUUUGGAATT against Tsga2 has inactive: -0.153
In z-score, GGUGCAAACUAAAAAUCUUTT against Enc1 has inactive: 1.19

Following part.

Row | Sequence | z-score
82 | GGACUUAACUAGUUGACAATT against 2810417H13Rik | inactive: 0.118
83 | CCAUCAUAUGAUCACGAAGTT against Cd83 | inactive: -0.879
84 | CCAUAUCUCUAAAUGUCAATT against Opa1 | inactive: 0.767
85 | GCAGCAAUUUCGGGUACUCTT against Tsta3 | inactive: 1.49
86 | GGGAGGUGCAAUCAGCUUUTT against Olfr1336 | inactive: 0.537
87 | GAGAGCCAUGCAAACUAAGTT against Il19 | inactive: -0.291
88 | CGAUGUGCAUUUUAAGUAGTT against Cdk2ap1 | inactive: 0.874
89 | GCAAAUACCGAACUCCCAGTT against Aqp12 | inactive: -0.992
90 | GGAGUUCUGUGAAAUCUUCTT against BC017634 | inactive: 0.0241
91 | GGGAAAGUCAUUCAUCAAGTT against Stc2 | inactive: 0.741
92 | GGAUCCUGAACGAAAAAGGTT against 2410018M14Rik | inactive: 0.213
93 | GGCUAUGGAGAAGCAGAUUTT against P140 | inactive: -2.44
94 | GGAAAAUAGUGGAAGCCUGTT against Apg3l | inactive: 0.063
95 | GGUGUUGGAAGAGAUGCUGTT against Ap3m2 | inactive: -1.83
96 | GGUUCCAUGAUAUCGGAACTT against Tbx15 | inactive: -0.352
97 | GGAGAUAAAGUCUUAUCACTT against 9130017N09Rik | inactive: 0.803
98 | GGUCGAAAGUUGUUUGUCATT against Arr3 | inactive: -1.42
99 | GGAAAAUGCUCACAUAGUGTT against Pak1ip1 | inactive: 0.932
100 | GGCCUGUUUGAACUCAUAGTT against Vrk3 | inactive: -0.443
101 | GCGAACACGAUUCAUUUAGTT against 2400003N08Rik | inactive: 0.51
102 | GCCAUGCUGACAAAGCUCATT against Hcn2 | inactive: -1.41
103 | GGGAAUGCAUAUUAUGCUATT against Dnajc7 | inactive: -0.873
104 | CCCUGCUUGAAUCUCUUCGTT against Tyk2 | inactive: 1
105 | GGCUGUAUGACUCAGCUCUTT against Olfr711 | inactive: -0.343
